Publication PMC7833772
These are yes or no findings as the source states them, for the method shown. In cells and extracts the contact can be indirect. Some entries that bind do so weakly or less than the wild type. Tags and fused reporters may be left off the sequences shown.

Molecular target: T1, HA-tagged KCNE2 (human) (UniProt Q9Y6J6)
T1 sequence: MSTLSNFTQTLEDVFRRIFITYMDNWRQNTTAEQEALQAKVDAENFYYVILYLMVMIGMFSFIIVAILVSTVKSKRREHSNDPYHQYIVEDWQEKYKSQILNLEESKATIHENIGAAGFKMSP
Assay: co-IP; lysate of CHO cells co-expressing HA-KCNE2 and DDK-Testin without any Kv alpha subunit; pre-cleared, antibody 1:100 overnight at 4°C, protein A/G PLUS agarose beads; western blot with anti-DDK and anti-HA

B1: DDK-tagged Testin (protein, UniProt Q9UGI8 1-421)
chain: MDLENKVKKMGLGHEQGFGAPCLKCKEKCEGFELHFWRKICRNCKCGQEEHDVLLSNEEDRKVGKLFEDTKYTTLIAKLKSDGIPMYKRNVMILTNPVAAKKNVSINTVTYEWAPPVQNQALARQYMQMLPKEKQPVAGSEGAQYRKKQLAKQLPAHDQDPSKCHELSPREVKEMEQFVKKYKSEALGVGDVKLPCEMDAQGPKQMNIPGGDRSTPAAVGAMEDKSAEHKRTQYSCYCCKLSMKEGDPAIYAERAGYDKLWHPACFVCSTCHELLVDMIYFWKNEKLYCGRHYCDSEKPRCAGCDELIFSNEYTQAENQNWHLKHFCCFDCDSILAGEIYVMVNDKPVCKPCYVKNHAVVCQGCHNAIDPEVQRVTYNNFSWHASTECFLCSCCSKCLIGQKFMPVEGMVFCSVECKKRMS
- binding: binds
